Some of the results follow.
What was measured:
Assay in all cases: log2 fold change, soluble protein after heating vs DMSO (PISA); higher = thermal stabilisation; K562 lysate, 10 uM; active = over 0.2 and 3.5 SD of the protein, either way, in both replicates (recomputed)
ibrutinib = compound: C=CC(=O)N1CCC[C@@H](n2nc(-c3ccc(Oc4ccccc4)cc3)c3c(N)ncnc32)C1 [ibrutinib]
In short: (§1)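 A 30 min treatment with 10 μM compound was applied to crude K562 extract at 1 mg/mL protein in PBS pH 7.4 with 1 mM MgCl2. Heating for 3 min spanned 48°C-58°C, after which aliquots were pooled, adjusted to 0.5% NP-40 at 4°C and spun at 21,000xg for 90 min. TMTpro 16plex LC-MS/MS of the supernatant, with channel sums equalised, gave values recorded as log-two fold change in thermal stability against solvent controls, from duplicates.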

Chains of the proteins cited; added tags and fusions are not shown. Lines headed by an entry give the natural chain unless they say otherwise; changes in a name come on top.
UniProt Q96T58, whole entry, looked up: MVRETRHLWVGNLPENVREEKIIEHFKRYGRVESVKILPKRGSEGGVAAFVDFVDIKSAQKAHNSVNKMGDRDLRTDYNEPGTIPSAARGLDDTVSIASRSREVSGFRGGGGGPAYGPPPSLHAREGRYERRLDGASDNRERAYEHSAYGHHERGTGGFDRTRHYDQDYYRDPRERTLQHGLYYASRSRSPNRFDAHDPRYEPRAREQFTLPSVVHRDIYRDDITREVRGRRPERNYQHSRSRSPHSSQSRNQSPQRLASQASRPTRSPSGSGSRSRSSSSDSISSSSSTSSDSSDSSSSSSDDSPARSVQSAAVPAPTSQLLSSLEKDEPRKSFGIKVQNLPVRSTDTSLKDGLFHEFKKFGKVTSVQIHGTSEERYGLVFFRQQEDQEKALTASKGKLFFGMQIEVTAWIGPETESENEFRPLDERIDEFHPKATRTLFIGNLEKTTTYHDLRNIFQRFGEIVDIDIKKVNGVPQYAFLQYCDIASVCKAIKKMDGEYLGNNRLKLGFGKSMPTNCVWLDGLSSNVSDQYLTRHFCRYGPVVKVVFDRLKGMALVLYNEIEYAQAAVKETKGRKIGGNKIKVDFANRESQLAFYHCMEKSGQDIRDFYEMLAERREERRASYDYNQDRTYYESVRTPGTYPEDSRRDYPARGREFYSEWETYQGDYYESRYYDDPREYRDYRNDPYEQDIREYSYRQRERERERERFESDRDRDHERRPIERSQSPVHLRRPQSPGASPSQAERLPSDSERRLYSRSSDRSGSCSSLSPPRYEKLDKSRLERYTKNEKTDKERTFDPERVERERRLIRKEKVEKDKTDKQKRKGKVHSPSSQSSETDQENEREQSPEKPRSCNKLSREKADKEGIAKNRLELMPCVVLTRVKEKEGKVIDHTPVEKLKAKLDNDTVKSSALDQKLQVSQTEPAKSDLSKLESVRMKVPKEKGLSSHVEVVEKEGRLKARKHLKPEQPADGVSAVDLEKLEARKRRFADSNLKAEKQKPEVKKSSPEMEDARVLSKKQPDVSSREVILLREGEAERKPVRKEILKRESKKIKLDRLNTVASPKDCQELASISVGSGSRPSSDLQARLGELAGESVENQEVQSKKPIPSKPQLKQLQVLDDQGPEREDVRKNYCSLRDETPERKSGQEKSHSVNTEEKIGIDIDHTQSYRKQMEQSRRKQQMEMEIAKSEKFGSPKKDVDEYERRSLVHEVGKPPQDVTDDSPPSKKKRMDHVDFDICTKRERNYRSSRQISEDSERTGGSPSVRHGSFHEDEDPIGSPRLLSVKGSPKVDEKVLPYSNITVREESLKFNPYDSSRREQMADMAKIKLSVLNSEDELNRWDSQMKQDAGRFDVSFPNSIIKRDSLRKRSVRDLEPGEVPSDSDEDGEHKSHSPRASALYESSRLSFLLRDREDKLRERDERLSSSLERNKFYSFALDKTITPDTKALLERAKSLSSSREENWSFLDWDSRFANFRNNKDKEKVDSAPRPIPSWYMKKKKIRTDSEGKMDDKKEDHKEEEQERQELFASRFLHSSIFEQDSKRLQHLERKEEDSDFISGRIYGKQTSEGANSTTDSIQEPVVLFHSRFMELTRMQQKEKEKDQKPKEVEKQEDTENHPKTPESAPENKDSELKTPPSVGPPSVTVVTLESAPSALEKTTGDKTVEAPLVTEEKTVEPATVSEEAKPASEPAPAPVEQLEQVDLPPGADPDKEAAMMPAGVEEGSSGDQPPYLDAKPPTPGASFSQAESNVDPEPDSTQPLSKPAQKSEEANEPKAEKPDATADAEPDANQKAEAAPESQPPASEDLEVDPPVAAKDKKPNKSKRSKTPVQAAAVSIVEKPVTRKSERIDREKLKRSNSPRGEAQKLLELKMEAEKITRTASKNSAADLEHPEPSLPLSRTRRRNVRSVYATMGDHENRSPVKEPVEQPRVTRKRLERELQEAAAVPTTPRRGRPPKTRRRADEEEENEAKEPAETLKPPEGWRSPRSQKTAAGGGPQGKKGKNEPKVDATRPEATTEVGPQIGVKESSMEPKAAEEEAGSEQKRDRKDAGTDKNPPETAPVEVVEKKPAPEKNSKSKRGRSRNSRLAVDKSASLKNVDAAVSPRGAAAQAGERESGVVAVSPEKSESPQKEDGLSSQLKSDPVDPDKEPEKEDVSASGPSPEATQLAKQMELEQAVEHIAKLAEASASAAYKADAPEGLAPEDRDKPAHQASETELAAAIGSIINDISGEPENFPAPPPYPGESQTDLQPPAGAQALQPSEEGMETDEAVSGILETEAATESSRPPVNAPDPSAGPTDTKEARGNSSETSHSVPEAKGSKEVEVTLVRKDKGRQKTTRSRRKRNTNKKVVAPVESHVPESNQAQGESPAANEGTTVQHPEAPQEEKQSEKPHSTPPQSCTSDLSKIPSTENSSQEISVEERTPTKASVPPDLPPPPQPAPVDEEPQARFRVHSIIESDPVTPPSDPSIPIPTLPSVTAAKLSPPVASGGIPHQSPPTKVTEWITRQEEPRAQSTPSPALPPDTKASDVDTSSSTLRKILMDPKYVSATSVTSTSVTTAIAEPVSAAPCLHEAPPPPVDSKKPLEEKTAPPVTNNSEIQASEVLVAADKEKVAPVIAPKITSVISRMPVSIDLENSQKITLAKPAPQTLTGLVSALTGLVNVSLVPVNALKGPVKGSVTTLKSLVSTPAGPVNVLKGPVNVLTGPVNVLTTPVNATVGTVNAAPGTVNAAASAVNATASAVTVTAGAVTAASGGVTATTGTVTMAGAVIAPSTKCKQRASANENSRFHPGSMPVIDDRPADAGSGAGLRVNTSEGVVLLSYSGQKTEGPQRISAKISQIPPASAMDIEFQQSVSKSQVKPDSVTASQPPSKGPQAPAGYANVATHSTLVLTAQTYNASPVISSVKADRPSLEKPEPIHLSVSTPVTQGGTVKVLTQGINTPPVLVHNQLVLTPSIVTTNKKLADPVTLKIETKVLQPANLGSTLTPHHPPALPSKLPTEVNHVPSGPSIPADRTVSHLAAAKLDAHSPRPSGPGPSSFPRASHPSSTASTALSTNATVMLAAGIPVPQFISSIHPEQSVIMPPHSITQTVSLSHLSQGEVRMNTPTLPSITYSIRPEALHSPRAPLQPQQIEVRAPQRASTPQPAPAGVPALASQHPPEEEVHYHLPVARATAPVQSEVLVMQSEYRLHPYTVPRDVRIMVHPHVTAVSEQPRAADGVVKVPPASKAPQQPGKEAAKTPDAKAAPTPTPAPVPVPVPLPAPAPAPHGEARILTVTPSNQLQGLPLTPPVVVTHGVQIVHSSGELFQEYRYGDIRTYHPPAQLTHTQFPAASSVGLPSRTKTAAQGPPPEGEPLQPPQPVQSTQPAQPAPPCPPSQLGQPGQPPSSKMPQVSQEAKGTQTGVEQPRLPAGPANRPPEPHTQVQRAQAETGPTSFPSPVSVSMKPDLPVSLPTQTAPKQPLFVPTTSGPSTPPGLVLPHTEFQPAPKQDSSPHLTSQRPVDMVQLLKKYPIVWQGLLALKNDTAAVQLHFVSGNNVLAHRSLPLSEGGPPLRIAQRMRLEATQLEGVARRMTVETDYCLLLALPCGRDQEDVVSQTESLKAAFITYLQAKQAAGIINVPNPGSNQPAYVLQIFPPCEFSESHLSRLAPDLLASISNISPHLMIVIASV
UniProt P15907: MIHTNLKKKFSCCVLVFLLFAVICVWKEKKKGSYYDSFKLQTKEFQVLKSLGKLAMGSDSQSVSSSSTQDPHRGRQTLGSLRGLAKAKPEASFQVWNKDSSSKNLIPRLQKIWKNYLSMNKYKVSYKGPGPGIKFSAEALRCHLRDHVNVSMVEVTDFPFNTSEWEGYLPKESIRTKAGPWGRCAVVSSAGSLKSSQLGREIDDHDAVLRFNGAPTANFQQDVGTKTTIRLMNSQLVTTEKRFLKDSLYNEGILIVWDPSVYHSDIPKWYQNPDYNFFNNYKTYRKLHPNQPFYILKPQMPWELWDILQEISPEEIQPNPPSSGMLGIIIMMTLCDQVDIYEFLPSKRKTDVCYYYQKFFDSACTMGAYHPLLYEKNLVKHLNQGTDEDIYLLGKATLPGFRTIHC
UniProt Q9BWW4: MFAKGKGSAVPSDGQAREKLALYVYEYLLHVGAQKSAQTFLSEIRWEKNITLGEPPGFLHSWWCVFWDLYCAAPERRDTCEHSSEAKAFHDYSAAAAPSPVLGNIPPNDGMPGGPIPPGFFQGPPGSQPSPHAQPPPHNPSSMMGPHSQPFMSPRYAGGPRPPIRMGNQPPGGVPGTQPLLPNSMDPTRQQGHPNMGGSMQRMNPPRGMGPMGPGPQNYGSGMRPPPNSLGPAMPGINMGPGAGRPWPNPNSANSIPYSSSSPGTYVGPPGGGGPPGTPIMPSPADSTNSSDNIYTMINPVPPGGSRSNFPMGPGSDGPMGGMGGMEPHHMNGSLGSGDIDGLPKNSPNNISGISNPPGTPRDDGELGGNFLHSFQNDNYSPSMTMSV
UniProt P84103: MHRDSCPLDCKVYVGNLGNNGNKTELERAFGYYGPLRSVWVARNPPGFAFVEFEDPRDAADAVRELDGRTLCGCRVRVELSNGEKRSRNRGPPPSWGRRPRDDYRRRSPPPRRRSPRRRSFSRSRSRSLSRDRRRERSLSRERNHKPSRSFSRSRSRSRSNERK
UniProt O95772: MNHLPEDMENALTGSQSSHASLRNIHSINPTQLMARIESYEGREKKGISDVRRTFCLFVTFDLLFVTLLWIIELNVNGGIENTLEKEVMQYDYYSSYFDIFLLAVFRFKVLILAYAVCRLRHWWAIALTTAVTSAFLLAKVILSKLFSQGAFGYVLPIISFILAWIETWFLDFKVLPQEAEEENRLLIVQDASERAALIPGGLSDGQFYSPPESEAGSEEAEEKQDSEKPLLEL
UniProt Q9HBM1: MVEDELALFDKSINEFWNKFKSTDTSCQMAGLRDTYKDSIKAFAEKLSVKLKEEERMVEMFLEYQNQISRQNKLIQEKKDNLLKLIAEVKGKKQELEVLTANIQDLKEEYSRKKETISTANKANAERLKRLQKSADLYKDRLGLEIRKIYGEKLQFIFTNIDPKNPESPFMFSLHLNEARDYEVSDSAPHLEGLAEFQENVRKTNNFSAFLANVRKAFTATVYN
UniProt Q08AE8, whole entry, looked up: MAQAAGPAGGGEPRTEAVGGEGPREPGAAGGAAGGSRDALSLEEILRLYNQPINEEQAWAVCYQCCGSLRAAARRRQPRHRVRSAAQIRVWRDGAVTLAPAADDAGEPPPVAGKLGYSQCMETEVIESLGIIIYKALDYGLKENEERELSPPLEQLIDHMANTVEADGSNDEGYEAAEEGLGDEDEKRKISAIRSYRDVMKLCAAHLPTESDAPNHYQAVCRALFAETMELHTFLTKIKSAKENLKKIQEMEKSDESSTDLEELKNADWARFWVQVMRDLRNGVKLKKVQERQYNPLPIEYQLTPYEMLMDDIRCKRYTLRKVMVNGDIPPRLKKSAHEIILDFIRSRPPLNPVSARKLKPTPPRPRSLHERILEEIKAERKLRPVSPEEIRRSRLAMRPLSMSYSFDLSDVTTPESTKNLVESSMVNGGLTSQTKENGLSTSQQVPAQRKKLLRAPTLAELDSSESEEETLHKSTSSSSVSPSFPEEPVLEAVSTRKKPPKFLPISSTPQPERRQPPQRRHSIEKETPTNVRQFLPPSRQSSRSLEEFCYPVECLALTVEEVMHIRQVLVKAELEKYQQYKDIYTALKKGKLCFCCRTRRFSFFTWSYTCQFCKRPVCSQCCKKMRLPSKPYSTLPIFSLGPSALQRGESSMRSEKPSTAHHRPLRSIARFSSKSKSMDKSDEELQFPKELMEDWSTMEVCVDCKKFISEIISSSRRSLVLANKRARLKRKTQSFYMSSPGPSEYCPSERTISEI
UniProt Q8TCT7: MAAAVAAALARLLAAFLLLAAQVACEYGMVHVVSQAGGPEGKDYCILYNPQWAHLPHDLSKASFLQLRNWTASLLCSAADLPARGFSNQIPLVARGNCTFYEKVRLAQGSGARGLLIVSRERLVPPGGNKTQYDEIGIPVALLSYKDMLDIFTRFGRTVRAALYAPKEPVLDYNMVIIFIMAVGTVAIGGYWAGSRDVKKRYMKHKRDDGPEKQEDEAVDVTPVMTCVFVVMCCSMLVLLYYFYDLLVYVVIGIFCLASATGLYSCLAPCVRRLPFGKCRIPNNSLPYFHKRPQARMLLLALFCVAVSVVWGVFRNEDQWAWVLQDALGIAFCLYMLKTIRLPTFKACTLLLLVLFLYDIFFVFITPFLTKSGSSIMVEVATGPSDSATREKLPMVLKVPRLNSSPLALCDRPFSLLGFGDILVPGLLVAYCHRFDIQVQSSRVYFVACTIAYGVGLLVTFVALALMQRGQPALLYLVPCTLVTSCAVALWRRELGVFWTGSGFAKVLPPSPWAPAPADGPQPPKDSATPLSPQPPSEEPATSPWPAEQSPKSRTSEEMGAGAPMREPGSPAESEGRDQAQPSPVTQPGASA

[1] = compound: CC(=O)c1cnc2ccc(-c3cc(Cl)c(O)c(Cl)c3)nc2c1N[C@H]1CC[C@H](CN(C)C)CC1
In short: as §1

ralimetinib = compound: CC(C)(C)Cn1c(N)nc2ccc(-c3[nH]c(C(C)(C)C)nc3-c3ccc(F)cc3)nc21 [ralimetinib]
In short: as §1

[2] = compound: CC(C)(O)CC(=O)NCCn1ccc2ncnc(Nc3ccc(Oc4cccc(C(F)(F)F)c4)c(Cl)c3)c21
In short: as §1

[3] = compound: CC(C)C1=C2N=C(C=C(N2N=C1)NCC3=CC=CC=C3)NCCCCCCN
In short: as §1

[4] = compound: CC1=C(C(CC(=O)N1)C2=CC=C(C=C2)C(F)(F)F)C(=O)NC3=C(C=C4C(=C3)C=NN4)F
In short: as §1

[5] = compound: CC1=C(C2=C(C=C1)C(=O)C3=CC=CC=C3N2CCCN)C
In short: as §1

[6] = compound: CC1=C(C=C(C=C1)NC(=O)C2=CC(=CC=C2)C(C)(C)C#N)NC3=CC4=C(C=C3)N=CN(C4=O)C
In short: as §1

[7] = compound: CC1=C(C=C(C=C1)NC(=O)C2=CC(=CC=C2)N(C)C)NC(=O)C3=CC=C(C=C3)O
In short: as §1

[8] = compound: CC1=CC=C(C=C1)SC2=C3C=C(SC3=CN=C2)C(=O)N
In short: as §1

vemurafenib = compound: CCCS(=O)(=O)Nc1ccc(F)c(C(=O)c2c[nH]c3ncc(-c4ccc(Cl)cc4)cc23)c1F [vemurafenib]
In short: as §1

[9] = compound: CCCS(=O)(=O)Nc1ccc(F)c(C(=O)c2c[nH]c3ncc(Cl)cc23)c1F
In short: as §1

barasertib = compound: CCN(CCCOc1ccc2c(Nc3cc(CC(=O)Nc4cccc(F)c4)[nH]n3)ncnc2c1)CCOP(=O)(O)O [barasertib]
In short: as §1

[10] = compound: CC[C@@H]1C(=O)N(C)c2cnc(Nc3ccc(C(=O)NC4CCN(C)CC4)cc3OC)nc2N1C1CCCC1
In short: as §1

volasertib = compound: CC[C@@H]1C(=O)N(C)c2cnc(Nc3ccc(C(=O)N[C@H]4CC[C@H](N5CCN(CC6CC6)CC5)CC4)cc3OC)nc2N1C(C)C [volasertib]
In short: as §1

[11] = compound: CCn1c(C(=O)N(C2CC2)C2CC2)cc2c3c(ncn3C)c(Nc3cc(C)n(C)n3)nc21
In short: as §1

[12] = compound: CCn1cc(-c2ccnc3[nH]c(-c4cccc(CN(C)C)c4)cc23)c(-c2ccc(NC(=O)N(C)C)cc2)n1
In short: as §1

[13] = compound: CN1CCC(CNc2ccc3ncc(-c4cccc(OC(F)(F)F)c4)n3n2)CC1
In short: as §1

saracatinib = compound: CN1CCN(CCOc2cc(OC3CCOCC3)c3c(Nc4c(Cl)ccc5c4OCO5)ncnc3c2)CC1 [saracatinib]
In short: as §1

sotrastaurin = compound: CN1CCN(c2nc(C3=C(c4c[nH]c5ccccc45)C(=O)NC3=O)c3ccccc3n2)CC1 [sotrastaurin]
In short: as §1

Target | log2 fold change (ibrutinib) | log2 fold change [1] | log2 fold change (ralimetinib) | log2 fold change [2] | log2 fold change [3] | log2 fold change [4] | log2 fold change [5] | log2 fold change [6] | log2 fold change [7] | log2 fold change [8] | log2 fold change (vemurafenib) | log2 fold change [9] | log2 fold change (barasertib) | log2 fold change [10] | log2 fold change (volasertib) | log2 fold change [11] | log2 fold change [12] | log2 fold change [13] | log2 fold change (saracatinib) | log2 fold change (sotrastaurin)
SRFBP1 (UniProt Q8NEF9) | inactive: 0.087 | inactive: -0.001 | inactive: -0.007 | inactive: -0.049 | inactive: 0.007 | inactive: 0.021 | inactive: 0 | inactive: -0.007 | inactive: 0.012 | inactive: -0.004 | inactive: -0.004 | inactive: 0.012 | inactive: 0 | inactive: 0.012 | inactive: -0.004 | inactive: -0.014 | inactive: 0.008 | inactive: 0.058 | inactive: 0.081 | inactive: -0.007
SSB (UniProt P05455) | inactive: -0.007 | inactive: -0.009 | inactive: -0.005 | inactive: -0.006 | inactive: 0.004 | inactive: -0.015 | inactive: -0.013 | inactive: -0.006 | inactive: 0.007 | inactive: 0.006 | inactive: -0.004 | inactive: -0.02 | inactive: -0.001 | inactive: -0.011 | inactive: 0.011 | inactive: 0.002 | inactive: 0.011 | inactive: -0.021 | inactive: -0.015 | inactive: -0.016
SPEN (UniProt Q96T58) | inactive: 0.168 | inactive: 0.142 | inactive: 0.002 | inactive: -0.077 | inactive: 0.023 | inactive: 0.049 | inactive: -0.124 | inactive: -0.01 | inactive: 0.035 | inactive: -0.004 | inactive: 0.021 | inactive: 0.046 | inactive: -0.073 | inactive: 0.019 | inactive: -0.036 | inactive: -0.003 | inactive: -0.227 | inactive: 0.087 | inactive: -0.026 | inactive: 0.066
ST6GAL1 (UniProt P15907) | inactive: 0.009 | inactive: 0.089 | inactive: 0.001 | inactive: -0.044 | inactive: 0.054 | inactive: 0.005 | inactive: -0.058 | inactive: 0.024 | inactive: -0.005 | inactive: -0.015 | inactive: 0.08 | inactive: 0.009 | inactive: 0.022 | inactive: 0.092 | inactive: -0.024 | inactive: -0.031 | inactive: 0.007 | inactive: -0.042 | inactive: 0.035 | inactive: 0.038
SSBP3 (UniProt Q9BWW4) | active: 0.435 | inactive: -0.024 | inactive: 0 | inactive: -0.038 | inactive: -0.02 | inactive: -0.021 | inactive: -0.018 | inactive: -0.018 | inactive: 0 | inactive: 0.054 | inactive: -0.02 | inactive: -0.033 | inactive: -0.049 | inactive: -0.001 | inactive: 0.008 | inactive: 0.038 | inactive: -0.03 | inactive: -0.083 | inactive: 0.068 | inactive: -0.005
SRSF3 (UniProt P84103) | inactive: 0.027 | inactive: -0.008 | inactive: -0.022 | inactive: -0.012 | inactive: 0.035 | inactive: 0.024 | inactive: 0.001 | inactive: -0.022 | inactive: 0.009 | inactive: 0.017 | inactive: -0.06 | inactive: -0.013 | inactive: 0.012 | inactive: -0.117 | inactive: 0.007 | inactive: -0.025 | inactive: 0.018 | inactive: 0.047 | inactive: -0.03 | inactive: -0.058
ST13 (UniProt P50502) | inactive: 0.021 | inactive: 0.026 | inactive: -0.013 | inactive: 0.014 | inactive: -0.005 | inactive: -0.01 | inactive: 0.008 | inactive: 0.003 | inactive: -0.026 | inactive: 0.01 | inactive: 0.014 | inactive: -0.021 | inactive: -0.015 | inactive: 0.02 | inactive: 0.007 | inactive: -0.001 | inactive: 0.031 | inactive: -0.004 | inactive: -0.007 | inactive: -0.028
SRPRA (UniProt P08240) | inactive: -0.009 | inactive: -0.006 | inactive: -0.007 | inactive: 0.03 | inactive: -0.024 | inactive: 0.016 | inactive: 0.034 | inactive: -0.028 | inactive: 0.007 | inactive: 0.017 | inactive: -0.02 | inactive: -0.005 | inactive: 0.044 | inactive: -0.032 | inactive: -0.016 | inactive: 0.018 | inactive: -0.027 | inactive: -0.017 | inactive: -0.002 | inactive: -0.017
STARD7 (UniProt Q9NQZ5) | inactive: 0.027 | inactive: -0.043 | inactive: 0.02 | inactive: -0.021 | inactive: -0.004 | inactive: -0.024 | inactive: -0.052 | inactive: 0.005 | inactive: 0.016 | inactive: -0.042 | inactive: 0 | inactive: 0.005 | inactive: 0.005 | inactive: -0.021 | inactive: 0.046 | inactive: -0.025 | inactive: 0.092 | inactive: 0.001 | inactive: -0.016 | inactive: 0.027
STARD3NL (UniProt O95772) | inactive: -0.002 | inactive: 0.004 | inactive: 0.02 | inactive: -0.034 | inactive: -0.031 | inactive: -0.032 | inactive: 0.024 | inactive: 0.028 | inactive: 0.061 | inactive: -0.058 | inactive: 0.046 | inactive: 0.01 | inactive: 0.002 | inactive: 0 | inactive: 0.015 | inactive: 0.06 | inactive: -0.218 | inactive: 0.188 | inactive: 0.013 | inactive: 0.027
SPC25 (UniProt Q9HBM1) | inactive: 0 | inactive: -0.058 | inactive: -0.038 | inactive: 0.015 | inactive: -0.002 | inactive: -0.032 | inactive: -0.017 | inactive: 0.016 | inactive: 0.002 | inactive: 0.006 | inactive: 0.011 | inactive: -0.008 | inactive: 0.036 | inactive: 0.006 | inactive: -0.019 | inactive: 0.012 | inactive: -0.083 | inactive: -0.004 | inactive: 0.013 | inactive: -0.013
SPIRE1 (UniProt Q08AE8) | inactive: 0.082 | inactive: -0.031 | inactive: -0.028 | inactive: 0.011 | inactive: -0.014 | inactive: -0.069 | inactive: 0.002 | inactive: 0.014 | inactive: 0.016 | inactive: -0.05 | inactive: 0.009 | inactive: 0.05 | inactive: 0.023 | inactive: 0.051 | inactive: -0.016 | inactive: 0.003 | inactive: -0.298 | inactive: 0.077 | inactive: 0.017 | inactive: 0.089
SPG21 (UniProt Q9NZD8) | inactive: 0.043 | inactive: 0.052 | inactive: 0.019 | inactive: -0.086 | inactive: -0.029 | inactive: 0.049 | inactive: 0.008 | inactive: -0.141 | inactive: 0.016 | inactive: -0.029 | inactive: 0 | inactive: 0.035 | inactive: 0.015 | inactive: -0.046 | inactive: -0.111 | inactive: -0.03 | inactive: -0.027 | inactive: -0.028 | inactive: 0.017 | inactive: 0.048
SPN (UniProt P16150) | inactive: 0.051 | inactive: -0.001 | inactive: -0.037 | inactive: -0.001 | inactive: -0.011 | inactive: -0.016 | inactive: -0.01 | inactive: -0.011 | inactive: 0.036 | inactive: -0.044 | inactive: -0.012 | inactive: -0.018 | inactive: -0.002 | inactive: 0.074 | inactive: 0.034 | inactive: -0.012 | inactive: -0.011 | inactive: 0.016 | inactive: -0.003 | inactive: 0.052
SPPL2B (UniProt Q8TCT7) | inactive: 0.064 | inactive: 0.074 | inactive: -0.043 | inactive: -0.066 | inactive: -0.047 | inactive: -0.007 | inactive: -0.038 | inactive: 0.031 | inactive: 0.074 | inactive: -0.015 | inactive: 0.109 | inactive: 0.045 | inactive: 0.069 | inactive: 0.011 | inactive: 0.022 | inactive: -0.046 | inactive: -0.096 | inactive: 0.022 | inactive: 0.023 | inactive: 0.022
SRA1 (UniProt Q9HD15) | inactive: 0.046 | inactive: 0.004 | inactive: 0.032 | inactive: -0.04 | inactive: -0.006 | inactive: -0.054 | inactive: -0.067 | inactive: 0.023 | inactive: 0.005 | inactive: -0.023 | inactive: 0.009 | inactive: 0.02 | inactive: 0.045 | inactive: 0.016 | inactive: 0.001 | inactive: -0.019 | inactive: 0 | inactive: 0.1 | inactive: 0.024 | inactive: 0.035
